The other results are listed elsewhere or left out.
Key:
Experiment in all cases: log2 fold change, soluble protein after heating vs DMSO (PISA); higher = thermal stabilisation; K562 lysate, 10 uM; active = over 0.2 and 3.5 SD of the protein, either way, in both replicates (recomputed)
nilotinib = compound: Cc1cn(-c2cc(NC(=O)c3ccc(C)c(Nc4nccc(-c5cccnc5)n4)c3)cc(C(F)(F)F)c2)cn1 [nilotinib]
Outline: (§1)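 To prepare the extract, K562 pellets were dounce-homogenised in PBS pH 7.4 with 1 mM MgCl2, giving crude material at 1 mg/mL protein. This was treated with 10 μM compound for 30 min, then heated in aliquots for 3 min over 48°C-58°C before pooling and addition of NP-40 to 0.5% at 4°C. Centrifugation at 21,000xg for 90 min left soluble protein in the supernatant, which TMTpro 16plex LC-MS/MS quantified with equalised channel sums. Results are log-two fold changes in thermal stability compared with solvent controls, from duplicates.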

The chains behind the UniProt entries cited, without tags or fusion partners. Where a name states a change or a piece, a line headed by the entry shows the natural chain unless it says otherwise.
UniProt Q13614, whole entry, looked up: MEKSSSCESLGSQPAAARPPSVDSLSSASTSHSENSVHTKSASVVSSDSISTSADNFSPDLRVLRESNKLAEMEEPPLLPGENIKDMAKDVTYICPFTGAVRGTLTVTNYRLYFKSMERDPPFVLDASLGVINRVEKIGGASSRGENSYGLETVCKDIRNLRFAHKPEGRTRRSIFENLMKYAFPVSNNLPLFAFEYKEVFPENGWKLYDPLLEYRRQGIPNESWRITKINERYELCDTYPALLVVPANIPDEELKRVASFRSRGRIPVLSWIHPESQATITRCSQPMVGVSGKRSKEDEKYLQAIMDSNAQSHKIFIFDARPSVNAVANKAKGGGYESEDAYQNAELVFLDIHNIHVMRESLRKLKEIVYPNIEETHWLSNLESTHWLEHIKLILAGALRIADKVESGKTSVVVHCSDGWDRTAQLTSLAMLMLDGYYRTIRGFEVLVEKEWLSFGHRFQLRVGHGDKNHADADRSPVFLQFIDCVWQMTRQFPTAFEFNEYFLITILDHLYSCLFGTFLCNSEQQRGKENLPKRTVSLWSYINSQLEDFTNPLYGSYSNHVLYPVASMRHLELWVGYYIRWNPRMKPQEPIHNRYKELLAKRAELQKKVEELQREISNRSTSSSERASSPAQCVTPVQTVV
UniProt Q13615: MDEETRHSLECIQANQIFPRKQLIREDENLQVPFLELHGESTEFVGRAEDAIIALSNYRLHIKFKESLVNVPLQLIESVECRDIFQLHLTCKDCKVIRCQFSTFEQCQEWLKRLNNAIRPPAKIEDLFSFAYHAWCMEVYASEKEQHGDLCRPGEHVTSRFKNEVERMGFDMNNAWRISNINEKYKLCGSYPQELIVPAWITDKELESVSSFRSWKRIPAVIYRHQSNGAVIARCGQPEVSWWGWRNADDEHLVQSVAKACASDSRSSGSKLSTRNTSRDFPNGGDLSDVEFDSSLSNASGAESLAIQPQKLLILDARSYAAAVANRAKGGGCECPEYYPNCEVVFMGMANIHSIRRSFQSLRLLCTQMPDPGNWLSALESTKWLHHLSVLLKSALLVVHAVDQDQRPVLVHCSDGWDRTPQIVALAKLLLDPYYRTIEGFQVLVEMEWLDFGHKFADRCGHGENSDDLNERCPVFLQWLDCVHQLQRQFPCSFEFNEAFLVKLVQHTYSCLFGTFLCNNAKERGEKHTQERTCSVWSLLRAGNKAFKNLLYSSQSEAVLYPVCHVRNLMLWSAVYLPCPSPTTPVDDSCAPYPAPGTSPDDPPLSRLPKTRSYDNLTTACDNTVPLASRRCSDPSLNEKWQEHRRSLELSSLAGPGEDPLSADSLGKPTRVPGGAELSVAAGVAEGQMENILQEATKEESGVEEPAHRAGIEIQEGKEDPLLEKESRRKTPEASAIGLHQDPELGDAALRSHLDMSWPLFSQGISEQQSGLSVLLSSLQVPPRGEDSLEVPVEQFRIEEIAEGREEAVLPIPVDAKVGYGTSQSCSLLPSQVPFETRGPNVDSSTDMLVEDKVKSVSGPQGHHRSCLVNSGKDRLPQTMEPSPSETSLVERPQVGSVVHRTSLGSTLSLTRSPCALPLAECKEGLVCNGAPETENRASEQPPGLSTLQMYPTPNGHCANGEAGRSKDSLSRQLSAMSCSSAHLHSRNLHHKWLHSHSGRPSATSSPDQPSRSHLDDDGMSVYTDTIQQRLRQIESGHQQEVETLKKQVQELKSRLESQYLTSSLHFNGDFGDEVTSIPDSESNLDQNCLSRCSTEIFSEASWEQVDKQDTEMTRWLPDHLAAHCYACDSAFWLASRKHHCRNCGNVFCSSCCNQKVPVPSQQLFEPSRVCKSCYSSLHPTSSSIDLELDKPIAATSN
UniProt Q13496: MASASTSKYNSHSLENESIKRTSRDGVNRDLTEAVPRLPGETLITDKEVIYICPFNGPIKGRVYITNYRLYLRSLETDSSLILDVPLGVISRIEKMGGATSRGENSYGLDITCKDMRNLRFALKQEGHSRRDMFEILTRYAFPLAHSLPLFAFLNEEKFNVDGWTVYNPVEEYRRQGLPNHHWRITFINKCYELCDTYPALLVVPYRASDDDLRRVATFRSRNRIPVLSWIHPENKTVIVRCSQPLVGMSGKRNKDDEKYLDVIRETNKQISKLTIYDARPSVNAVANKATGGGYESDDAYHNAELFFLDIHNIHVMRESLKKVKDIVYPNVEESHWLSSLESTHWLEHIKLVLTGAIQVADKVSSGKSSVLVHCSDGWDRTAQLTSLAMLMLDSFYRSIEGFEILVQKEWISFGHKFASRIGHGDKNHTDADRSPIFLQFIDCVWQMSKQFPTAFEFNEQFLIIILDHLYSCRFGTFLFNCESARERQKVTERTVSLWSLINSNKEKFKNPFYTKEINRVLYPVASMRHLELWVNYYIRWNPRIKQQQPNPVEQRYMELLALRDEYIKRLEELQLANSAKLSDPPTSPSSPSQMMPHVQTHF
UniProt P13640: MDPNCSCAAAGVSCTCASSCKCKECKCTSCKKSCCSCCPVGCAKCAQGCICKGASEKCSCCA
UniProt P20585: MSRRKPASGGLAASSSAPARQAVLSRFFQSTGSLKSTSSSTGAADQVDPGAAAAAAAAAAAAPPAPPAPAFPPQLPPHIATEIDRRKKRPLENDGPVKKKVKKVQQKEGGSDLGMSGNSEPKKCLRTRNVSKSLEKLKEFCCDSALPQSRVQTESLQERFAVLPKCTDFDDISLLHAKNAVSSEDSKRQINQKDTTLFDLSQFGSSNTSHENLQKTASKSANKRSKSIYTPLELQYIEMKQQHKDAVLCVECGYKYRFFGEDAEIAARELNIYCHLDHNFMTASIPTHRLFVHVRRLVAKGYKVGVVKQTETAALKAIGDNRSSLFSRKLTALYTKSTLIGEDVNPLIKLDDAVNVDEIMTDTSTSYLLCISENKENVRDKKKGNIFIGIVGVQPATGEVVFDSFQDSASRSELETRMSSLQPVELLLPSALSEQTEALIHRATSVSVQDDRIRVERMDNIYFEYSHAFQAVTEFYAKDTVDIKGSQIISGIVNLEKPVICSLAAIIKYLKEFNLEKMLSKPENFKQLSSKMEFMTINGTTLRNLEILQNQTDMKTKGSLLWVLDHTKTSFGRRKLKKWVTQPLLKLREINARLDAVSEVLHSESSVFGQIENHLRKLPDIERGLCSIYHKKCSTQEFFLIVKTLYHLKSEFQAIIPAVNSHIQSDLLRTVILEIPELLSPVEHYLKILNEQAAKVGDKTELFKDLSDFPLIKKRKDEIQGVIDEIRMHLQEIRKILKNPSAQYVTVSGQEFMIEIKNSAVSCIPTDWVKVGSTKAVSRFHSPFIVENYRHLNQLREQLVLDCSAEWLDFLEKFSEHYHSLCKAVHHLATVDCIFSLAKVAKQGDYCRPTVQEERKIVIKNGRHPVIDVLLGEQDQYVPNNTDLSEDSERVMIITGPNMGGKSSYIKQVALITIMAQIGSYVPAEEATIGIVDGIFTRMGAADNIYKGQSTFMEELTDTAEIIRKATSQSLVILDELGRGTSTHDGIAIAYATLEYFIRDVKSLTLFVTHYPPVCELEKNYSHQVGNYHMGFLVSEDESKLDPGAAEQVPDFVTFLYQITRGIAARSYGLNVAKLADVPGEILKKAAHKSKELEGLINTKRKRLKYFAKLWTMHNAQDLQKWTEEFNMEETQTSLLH
UniProt Q13330: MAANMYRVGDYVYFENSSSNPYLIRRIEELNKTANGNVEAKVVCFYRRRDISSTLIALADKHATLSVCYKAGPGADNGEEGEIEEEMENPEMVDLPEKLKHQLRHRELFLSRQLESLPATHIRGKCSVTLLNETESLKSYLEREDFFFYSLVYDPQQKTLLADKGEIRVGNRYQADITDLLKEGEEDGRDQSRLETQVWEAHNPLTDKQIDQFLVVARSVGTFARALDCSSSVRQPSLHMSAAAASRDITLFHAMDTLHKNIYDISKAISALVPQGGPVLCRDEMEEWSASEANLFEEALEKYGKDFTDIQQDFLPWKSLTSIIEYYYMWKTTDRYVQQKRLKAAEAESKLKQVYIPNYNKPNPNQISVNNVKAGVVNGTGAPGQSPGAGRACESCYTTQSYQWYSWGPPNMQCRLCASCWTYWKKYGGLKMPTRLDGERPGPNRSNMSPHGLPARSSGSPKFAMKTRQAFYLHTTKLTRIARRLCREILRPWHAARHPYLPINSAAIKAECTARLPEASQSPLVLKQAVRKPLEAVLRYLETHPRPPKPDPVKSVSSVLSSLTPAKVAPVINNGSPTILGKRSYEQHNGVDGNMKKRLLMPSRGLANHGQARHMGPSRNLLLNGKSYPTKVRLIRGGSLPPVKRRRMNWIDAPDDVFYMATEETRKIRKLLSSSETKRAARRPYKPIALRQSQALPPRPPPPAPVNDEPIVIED
UniProt Q96DP5: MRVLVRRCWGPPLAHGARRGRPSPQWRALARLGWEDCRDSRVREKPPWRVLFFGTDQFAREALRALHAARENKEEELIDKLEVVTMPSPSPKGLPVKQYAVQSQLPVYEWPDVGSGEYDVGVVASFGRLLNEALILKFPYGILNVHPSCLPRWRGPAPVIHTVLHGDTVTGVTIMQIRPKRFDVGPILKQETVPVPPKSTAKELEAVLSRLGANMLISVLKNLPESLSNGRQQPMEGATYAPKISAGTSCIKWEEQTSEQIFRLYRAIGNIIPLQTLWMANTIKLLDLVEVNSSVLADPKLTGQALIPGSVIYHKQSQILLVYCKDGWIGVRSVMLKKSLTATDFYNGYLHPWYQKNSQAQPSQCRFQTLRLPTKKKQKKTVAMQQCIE
UniProt P43246, whole entry, looked up: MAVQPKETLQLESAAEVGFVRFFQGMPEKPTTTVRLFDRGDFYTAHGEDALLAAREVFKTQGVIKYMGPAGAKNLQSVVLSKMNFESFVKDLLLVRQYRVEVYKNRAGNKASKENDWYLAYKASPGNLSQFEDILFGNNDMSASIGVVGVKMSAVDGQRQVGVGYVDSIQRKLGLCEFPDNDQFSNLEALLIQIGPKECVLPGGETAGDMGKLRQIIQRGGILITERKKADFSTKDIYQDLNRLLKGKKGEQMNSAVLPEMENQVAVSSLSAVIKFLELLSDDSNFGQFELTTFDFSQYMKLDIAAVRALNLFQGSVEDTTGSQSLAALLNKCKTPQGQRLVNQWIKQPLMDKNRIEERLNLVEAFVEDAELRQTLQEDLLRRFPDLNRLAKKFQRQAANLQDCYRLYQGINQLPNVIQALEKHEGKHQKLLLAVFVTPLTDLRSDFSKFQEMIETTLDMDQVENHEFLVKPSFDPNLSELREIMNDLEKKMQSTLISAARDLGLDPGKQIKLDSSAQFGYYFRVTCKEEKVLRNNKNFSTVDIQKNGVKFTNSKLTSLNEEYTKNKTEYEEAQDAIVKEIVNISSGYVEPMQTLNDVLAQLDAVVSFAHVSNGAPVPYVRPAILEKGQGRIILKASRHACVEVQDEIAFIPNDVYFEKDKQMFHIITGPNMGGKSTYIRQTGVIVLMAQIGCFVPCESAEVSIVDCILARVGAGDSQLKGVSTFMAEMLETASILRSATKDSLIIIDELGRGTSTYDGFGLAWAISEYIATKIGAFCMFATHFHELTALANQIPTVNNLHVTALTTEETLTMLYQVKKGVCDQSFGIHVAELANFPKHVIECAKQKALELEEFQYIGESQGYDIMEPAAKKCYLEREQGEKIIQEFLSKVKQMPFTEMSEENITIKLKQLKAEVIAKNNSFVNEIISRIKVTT
UniProt O94776: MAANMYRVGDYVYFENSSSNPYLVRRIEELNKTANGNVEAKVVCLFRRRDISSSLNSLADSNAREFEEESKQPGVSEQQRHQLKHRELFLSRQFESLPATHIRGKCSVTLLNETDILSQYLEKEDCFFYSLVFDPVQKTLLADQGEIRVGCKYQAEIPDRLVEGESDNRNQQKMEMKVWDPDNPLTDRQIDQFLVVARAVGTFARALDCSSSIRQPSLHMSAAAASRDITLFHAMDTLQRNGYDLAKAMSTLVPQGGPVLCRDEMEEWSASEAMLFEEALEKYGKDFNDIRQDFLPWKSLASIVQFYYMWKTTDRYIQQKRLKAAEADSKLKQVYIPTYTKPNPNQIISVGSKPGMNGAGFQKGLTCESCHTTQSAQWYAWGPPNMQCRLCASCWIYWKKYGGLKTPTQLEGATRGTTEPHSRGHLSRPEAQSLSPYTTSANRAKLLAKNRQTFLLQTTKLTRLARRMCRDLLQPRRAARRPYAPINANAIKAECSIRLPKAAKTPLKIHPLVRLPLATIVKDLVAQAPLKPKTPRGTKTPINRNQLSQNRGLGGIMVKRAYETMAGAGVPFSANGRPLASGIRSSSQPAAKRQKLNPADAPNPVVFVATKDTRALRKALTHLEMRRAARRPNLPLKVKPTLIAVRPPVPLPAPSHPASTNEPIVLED
UniProt Q9Y3D2: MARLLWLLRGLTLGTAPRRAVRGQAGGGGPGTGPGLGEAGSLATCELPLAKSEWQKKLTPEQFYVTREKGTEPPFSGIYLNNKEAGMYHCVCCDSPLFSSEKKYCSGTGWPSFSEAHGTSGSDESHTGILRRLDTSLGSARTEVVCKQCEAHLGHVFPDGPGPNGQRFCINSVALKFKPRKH

[1] = compound: Cc1nc(Nc2n[nH]c3c2CN(C(=O)N[C@H](CN(C)C)c2ccccc2)C3(C)C)c2sccc2n1
Outline: as §1

dasatinib = compound: Cc1nc(Nc2ncc(C(=O)Nc3c(C)cccc3Cl)s2)cc(N2CCN(CCO)CC2)n1 [dasatinib]
Outline: as §1

[2] = compound: Cc1ncc(-c2ccnc(Nc3ccc(S(C)(=O)=O)cc3)n2)n1C(C)C
Outline: as §1

[3] = compound: Cn1cc(-c2ccc3c(c2)CCN3C(=O)Cc2cccc(C(F)(F)F)c2)c2c(N)ncnc21
Outline: as §1

quisinostat = compound: Cn1cc(CNCC2CCN(c3ncc(C(=O)NO)cn3)CC2)c2ccccc21 [quisinostat]
Outline: as §1

tipifarnib = compound: Cn1cncc1[C@@](N)(c1ccc(Cl)cc1)c1ccc2c(c1)c(-c1cccc(Cl)c1)cc(=O)n2C [tipifarnib]
Outline: as §1

[4] = compound: NC(=O)Nc1cc(-c2cccc(F)c2)sc1C(=O)N[C@H]1CCCNC1
Outline: as §1

[5] = compound: NC(=O)c1cnc(N[C@@H]2CCCC[C@@H]2N)nc1Nc1cccc(-n2nccn2)c1
Outline: as §1

[6] = compound: NC1(c2ccc(-c3nc4ccn5c(=O)[nH]nc5c4cc3-c3ccccc3)cc2)CCC1
Outline: as §1

Measured: log2 fold change

MTMR14 (UniProt Q8NCE2)
inactive: nilotinib -0.008 | [1] 0.024 | dasatinib -0.02 | [2] 0.016 | [3] 0.01 | quisinostat -0.006 | tipifarnib -0.058 | [4] 0.025 | [5] 0.053 | [6] -0.073

MTMR2 (UniProt Q13614)
inactive: nilotinib 0.001 | [1] -0.05 | dasatinib 0.029 | [2] -0.067 | [3] 0.008 | quisinostat -0.071 | tipifarnib -0.003 | [4] 0.028 | [5] 0.038 | [6] 0.012

MRPS25 (UniProt P82663)
inactive: nilotinib 0.019 | [1] -0.001 | dasatinib -0.015 | [2] 0.018 | [3] 0.042 | quisinostat 0.013 | tipifarnib -0.006 | [4] 0.036 | [5] 0.027 | [6] -0.091

MRPL3 (UniProt P09001)
inactive: nilotinib -0.002 | [1] -0.008 | dasatinib -0.029 | [2] -0.025 | [3] 0.093 | quisinostat -0.049 | tipifarnib -0.003 | [4] 0.074 | [5] -0.054 | [6] 0.025

MTMR3 (UniProt Q13615)
inactive: nilotinib 0.019 | [1] 0 | dasatinib 0.018 | [2] 0.005 | [3] 0.071 | quisinostat -0.024 | tipifarnib -0.013 | [4] 0.018 | [5] 0.022 | [6] -0.024

MTM1 (UniProt Q13496)
inactive: nilotinib -0.003 | [1] 0 | dasatinib 0.022 | [2] 0.025 | [3] -0.009 | quisinostat -0.036 | tipifarnib 0.006 | [4] 0.019 | [5] -0.008 | [6] -0.017

MT1G (UniProt P13640)
inactive: nilotinib 0.173 | [1] 0.041 | dasatinib -0.162 | [2] 0.264 | [3] -0.289 | quisinostat 0.099 | tipifarnib 0.089 | [4] -0.12 | [5] -0.037 | [6] -0.05

MRPS9 (UniProt P82933)
inactive: nilotinib -0.038 | [1] 0.004 | dasatinib 0.028 | [2] -0.012 | [3] 0.034 | quisinostat 0.005 | tipifarnib 0.033 | [4] -0.015 | [5] 0 | [6] 0.018

MSH3 (UniProt P20585)
inactive: nilotinib -0.007 | [1] 0.034 | dasatinib -0.03 | [2] 0.028 | [3] 0.014 | quisinostat -0.037 | tipifarnib -0.001 | [4] -0.003 | [5] 0.011 | [6] -0.035

MRPS27 isoform 2 (UniProt Q92552)
inactive: nilotinib 0.023 | [1] -0.026 | dasatinib -0.061 | [2] 0.056 | [3] 0.023 | quisinostat -0.105 | tipifarnib -0.031 | [4] 0.047 | [5] 0.013 | [6] -0.016

MRPS30 (UniProt Q9NP92)
inactive: nilotinib 0.016 | [1] -0.038 | dasatinib -0.092 | [2] -0.008 | [3] 0.025 | quisinostat -0.106 | tipifarnib -0.001 | [4] 0.041 | [5] 0.259 | [6] -0.04

MTA1 (UniProt Q13330)
inactive: nilotinib 0.042 | [1] 0.01 | dasatinib -0.023 | [2] 0.033 | [3] 0.005 | quisinostat -0.089 | tipifarnib -0.03 | [4] 0.052 | [5] -0.033 | [6] -0.004

MRPL39 isoform 2 (UniProt Q9NYK5)
inactive: nilotinib 0.011 | [1] 0.04 | dasatinib 0.03 | [2] 0.009 | [3] 0.05 | quisinostat -0.038 | tipifarnib -0.045 | [4] -0.002 | [5] 0.027 | [6] -0.031

MRPL49 (UniProt Q13405)
inactive: nilotinib 0.043 | [1] -0.052 | dasatinib -0.015 | [2] 0.088 | [3] 0.045 | quisinostat 0.034 | tipifarnib 0.054 | [4] -0.016 | [5] 0.014 | [6] -0.035

MRPS33 (UniProt Q9Y291)
inactive: nilotinib -0.166 | [1] 0.004 | dasatinib 0.048 | [2] 0.015 | [3] 0.097 | quisinostat 0.155 | tipifarnib 0.133 | [4] -0.024 | [5] 0.016 | [6] -0.016

MRPL44 (UniProt Q9H9J2)
inactive: nilotinib 0.034 | [1] -0.069 | dasatinib -0.014 | [2] -0.021 | [3] 0.019 | quisinostat -0.02 | tipifarnib 0.012 | [4] 0.015 | [5] 0.003 | [6] -0.016

MTDH (UniProt E5RJU9)
inactive: nilotinib 0.358 | [1] -0.138 | dasatinib 0.111 | [2] -0.064 | [3] 0.15 | quisinostat -0.128 | tipifarnib 0.055 | [4] -0.063 | [5] 0.071 | [6] -0.102

MTFMT (UniProt Q96DP5)
inactive: nilotinib -0.12 | [1] -0.008 | dasatinib -0.09 | [2] 0.335 | [3] 0.174 | quisinostat -0.078 | tipifarnib 0.146 | [4] 0.098 | [5] -0.112 | [6] -0.021

MRPL35 (UniProt Q9NZE8)
inactive: nilotinib 0.05 | [1] -0.027 | dasatinib 0.062 | [2] 0.049 | [3] -0.028 | quisinostat 0.004 | tipifarnib -0.037 | [4] -0.034 | [5] -0.007 | [6] 0.056

MSH2 (UniProt P43246)
inactive: nilotinib -0.005 | [1] -0.008 | dasatinib -0.038 | [2] -0.01 | [3] 0.01 | quisinostat -0.08 | tipifarnib 0.004 | [4] 0.046 | [5] 0.016 | [6] -0.017

MRPL57 (UniProt Q9BQC6)
inactive: nilotinib 0.046 | [1] -0.076 | dasatinib -0.03 | [2] 0.007 | [3] -0.045 | quisinostat -0.03 | tipifarnib 0.022 | [4] 0.003 | [5] 0.036 | [6] 0.027

MRPS10 (UniProt P82664)
inactive: nilotinib 0.009 | [1] -0.034 | dasatinib -0.004 | [2] 0.038 | [3] 0.01 | quisinostat -0.034 | tipifarnib 0 | [4] -0.011 | [5] -0.006 | [6] 0.012

MUC1, A0A087WWM1
inactive: nilotinib 0.004 | [1] 0 | dasatinib 0.153 | [2] 0.023 | [3] -0.033 | quisinostat -0.045 | tipifarnib -0.017 | [4] -0.044 | [5] -0.053 | [6] -0.05

MTA2 (UniProt O94776)
inactive: nilotinib 0.001 | [1] 0.017 | dasatinib -0.019 | [2] -0.011 | [3] 0.046 | quisinostat -0.062 | tipifarnib -0.007 | [4] 0.03 | [5] -0.002 | [6] 0.001

Copied from the results shown (8 entries):
MRPL44 (UniProt Q9H9J2)
inactive: nilotinib 0.034 | [1] -0.069 | dasatinib -0.014 | [2] -0.021 | [3] 0.019 | quisinostat -0.02 | tipifarnib 0.012 | [4] 0.015 | [5] 0.003 | [6] -0.016

MTDH (UniProt E5RJU9)
inactive: nilotinib 0.358 | [1] -0.138 | dasatinib 0.111 | [2] -0.064 | [3] 0.15 | quisinostat -0.128 | tipifarnib 0.055 | [4] -0.063 | [5] 0.071 | [6] -0.102

MTFMT (UniProt Q96DP5)
inactive: nilotinib -0.12 | [1] -0.008 | dasatinib -0.09 | [2] 0.335 | [3] 0.174 | quisinostat -0.078 | tipifarnib 0.146 | [4] 0.098 | [5] -0.112 | [6] -0.021

MRPL35 (UniProt Q9NZE8)
inactive: nilotinib 0.05 | [1] -0.027 | dasatinib 0.062 | [2] 0.049 | [3] -0.028 | quisinostat 0.004 | tipifarnib -0.037 | [4] -0.034 | [5] -0.007 | [6] 0.056

MSH2 (UniProt P43246)
inactive: nilotinib -0.005 | [1] -0.008 | dasatinib -0.038 | [2] -0.01 | [3] 0.01 | quisinostat -0.08 | tipifarnib 0.004 | [4] 0.046 | [5] 0.016 | [6] -0.017

MRPL57 (UniProt Q9BQC6)
inactive: nilotinib 0.046 | [1] -0.076 | dasatinib -0.03 | [2] 0.007 | [3] -0.045 | quisinostat -0.03 | tipifarnib 0.022 | [4] 0.003 | [5] 0.036 | [6] 0.027

MRPS10 (UniProt P82664)
inactive: nilotinib 0.009 | [1] -0.034 | dasatinib -0.004 | [2] 0.038 | [3] 0.01 | quisinostat -0.034 | tipifarnib 0 | [4] -0.011 | [5] -0.006 | [6] 0.012

MUC1, A0A087WWM1
inactive: nilotinib 0.004 | [1] 0 | dasatinib 0.153 | [2] 0.023 | [3] -0.033 | quisinostat -0.045 | tipifarnib -0.017 | [4] -0.044 | [5] -0.053 | [6] -0.05

Next results:

MSRB2 (UniProt Q9Y3D2)
inactive: nilotinib 0.14 | [1] -0.083 | dasatinib 0.01 | [2] 0.035 | [3] -0.013 | quisinostat -0.035 | tipifarnib 0.005 | [4] -0.039 | [5] 0.031 | [6] 0.031

MTHFD2 (UniProt P13995)
inactive: nilotinib 0.011 | [1] -0.018 | dasatinib -0.025 | [2] 0.003 | [3] 0.02 | quisinostat -0.019 | tipifarnib -0.016 | [4] 0.024 | [5] 0.002 | [6] 0.017

MRPL53 (UniProt Q96EL3)
inactive: nilotinib -0.04 | [1] 0.026 | dasatinib -0.018 | [2] 0.015 | [3] 0.06 | quisinostat 0.02 | tipifarnib -0.034 | [4] -0.041 | [5] -0.006 | [6] 0.031

MRPL32 (UniProt Q9BYC8)
inactive: nilotinib 0.032 | [1] 0.015 | dasatinib -0.012 | [2] 0.026 | [3] -0.01 | quisinostat 0.056 | tipifarnib -0.002 | [4] -0.059 | [5] -0.035 | [6] -0.022

MRPL4 (UniProt Q9BYD3)
inactive: nilotinib 0.086 | [1] -0.022 | dasatinib -0.052 | [2] 0.056 | [3] -0.027 | quisinostat -0.003 | tipifarnib -0.042 | [4] 0.044 | [5] 0.001 | [6] -0.047
